# Primary screen of a compound library

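Whole-cell assay for inhibitors of Mycobacterium tuberculosis growth, labelled Cornell in the record; the read-out is not stated. The concentration is filed as 10 mM, unlikely as a test dose, so the dose is not known. Higher means stronger inhibition (inferred from two other growth screens of the library). About 53,000 compounds were tested under these conditions; 1.7% (about 900) showed 50% or more at least once.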

Results are given as percent effect.
How 0% and 100% were set is not recorded. Most values in the screen are low, and negative values occur.
This is an unselected part of the compounds tested.

SMILES	Percent Effect
Cc1ccc(Oc2ncccc2C(=O)N(C)CC2OCCO2)c(C)c1	-1.106
Cn1ccnc1Sc1ccc(S(N)(=O)=O)cn1	30.59
CC(C)[C@@H]1CN(C(=O)C2(c3ccccc3)CCN(C)CC2)C[C@H]1N(C)C	8.512
CCC1CCCCN1Cc1nc2c(cnn2C)c(=O)[nH]1 (stereo not drawn)	-4.629
NC(=O)c1cn[nH]c1NC(=O)c1ccc2c(c1)OCO2	2.059
CC(C)n1nc(CNc2ncccn2)c2c1CN(C)CC2.O=C(O)C(F)(F)F.O=C(O)C(F)(F)F.O=C(O)C(F)(F)F	-1.477
CCn1cc(NC(=O)C2CCN(CC(=O)NCC(C)C)CC2)cn1	-35.57
O=C(O)C(F)(F)F.[H][C@@]12CN(C(=O)NC(C)C)C[C@]1([H])C(=O)N(Cc1csc(C)n1)C2	14.77
O=C1COC2(CCN(c3ncccn3)CC2)CN1c1ccsc1	-13.94
O=S(=O)(NCc1ccccc1Cn1cncn1)N1CCCCC1	-41.6
COCCN1CCN(S(=O)(=O)C2CC2)Cc2cccnc21	-4.025
CCN(CCn1cccn1)Cc1nc(-c2ccoc2)oc1C	-19.16
CN1CC2(CCN(Cc3cccc(C#N)c3)CC2)CC1=O	-1.898
CC(C1CC1)n1nccc1NC(=O)CN(C)C(=O)OC(C)(C)C (stereo not drawn)	-7.878
[H][C@]12CC[C@]([H])(CN(Cc3[nH]cnc3C)C1)N(Cc1cccc(C)n1)C2	12.6
O=C(O)[C@@H]1CN(C(=O)c2ccc3[nH]nnc3c2)C[C@H]1c1cccc(F)c1	-19.9
Cc1cc(-c2cnc(N3CCCCCC3)nc2-c2cccnc2C)on1	62.64
CN(C)C(=O)CS(=O)(=O)Cc1ccn(-c2cccc(F)c2)n1	-8.939
COc1cccc(N2CCC(CNC(=O)CN3CSCC3=O)C2)c1 (stereo not drawn)	-9.923
Cc1ccc(OCC(O)CNC(=O)C2(c3ccc(F)cc3)CC2)cc1 (stereo not drawn)	22.5
CS(=O)(=O)N1CCCCC12CCN(c1nncs1)CC2	-51.76
Cl.Clc1cccnc1OC1CCNCC1	-39.06
O=C(O)C(F)(F)F.O=C(O)C(F)(F)F.[H][C@@]12C[C@H](C(=O)NCC3CC3)N(C)[C@]1([H])CN(Cc1c(C)noc1C)C2	2.431
COc1ccc(Cc2cccc(C3CCN(C)CC3)n2)cc1	24.21
Cn1cc(-c2ncc3c(c2C(=O)O)CCN(CC2CCOC2)C3)cn1 (stereo not drawn)	-11.42
O=C(O)C(F)(F)F.O=C(c1cccnc1)N1CCCC2(COCCN(c3ccccc3)C2)C1 (stereo not drawn)	5.261
[H][C@]12CC[C@@]([H])(C1)N(Cc1cc(-c3ccccc3)no1)C2	18.4
Cc1ccc2nc(CN3CCN(C4CCCCC4)C(=O)C3)cc(O)c2c1	14.48
Cc1cncc(C2CCN(Cc3cnc(C)nc3)CC2)n1	56.88
CCS(=O)(=O)N1CCc2ncnc(C)c2CC1	17.92
COCC(=O)NC1CC2(CCN(Cc3ccco3)CC2)c2ccccc21.O=C(O)C(F)(F)F (stereo not drawn)	22.98
O=C(N[C@@H]1CCC[C@@H](N2CCOCC2)[C@@H]1O)c1cnn2cccnc12	-33.98
O=C(O)C(F)(F)F.c1ccc(C[C@H]2CN(Cc3nccs3)CC[C@@H]2OCC2CC2)cc1	0.8723
CC(=O)NCCCSC1CCCN(c2ccccc2F)C1=O (stereo not drawn)	-25.8
Cc1cc(C2CCCCN2C(=O)c2cccn2C)nc2nccn12 (stereo not drawn)	14.54
CC(C)N1CCOCC2(CCCN(C(=O)c3cn(C)cn3)C2)C1.O=C(O)C(F)(F)F (stereo not drawn)	17.96
O=C(NC1CC1)c1cc(NC(=O)N2CCSCC2)ccc1Cl	7.82
CCS(=O)(=O)N1CCc2c(cccc2NC(=O)NCCOC)C1	16.78
Cc1cc(C(N)=O)ccc1NC(=O)c1nc(N2CCCC2)ncc1Cl	105.8
Cc1nccn1CC1CCCN1S(=O)(=O)Cc1ccccc1 (stereo not drawn)	11.23
CCn1ncc2c1C(COC)N(C(=O)c1cccs1)CC2.O=C(O)C(F)(F)F (stereo not drawn)	-21.04
CC(C)OCCCNC(=O)NCc1cccc(-n2ccnc2)c1	13.46
Cc1ncsc1CN(C)Cc1cc2c(cc1OC(F)F)OCO2	18.82
COc1ccc(C(=O)N2CC(=O)N(C3CCC3)CC(O)C2)cc1OC (stereo not drawn)	-13.29
CCCc1n[nH]c(C2CN(C(=O)CCCn3ccnc3)CCO2)n1 (stereo not drawn)	-11.59
CCOCC(=O)N1CCCn2c(CN3CCCCC3)nnc2C1	-0.5599
O=C(CC1CCN(c2cccnn2)CC1)Nc1nncs1	10.48
Cc1ncc(CN(C)C(=O)Nc2cccc(N3CCOC3=O)c2)s1	-20.17
O=C(c1ccc(-c2cn[nH]c2)nc1)N1CCC(N2CCOCC2)CC1	40.25
CCc1nnsc1C(=O)N(C)Cc1nnc2n1CCC2	-1.576
Cc1ncc2c(n1)CCCC2NC(=O)c1ccncc1 (stereo not drawn)	-15
CCCc1cnc(C)nc1N1CCC(Cc2cccc(C(N)=O)c2)C1 (stereo not drawn)	2.588
Cc1nnc(CN2CCN(CCOc3ccccc3C#N)CC2)n1C	15.64
CC(C)(C)C(=O)Nc1cnn(-c2ccccc2S(C)(=O)=O)c1	18.49
[H][C@@]12CS(=O)(=O)C[C@]1([H])N(C(=O)c1cc(C(C)C)on1)CCN2CC=C(C)C	-9.444
Cc1ccc(C)n1-c1ccsc1C(=O)NCC(=O)N1CCCC1	0.9548
O=C1NC(c2cnc(C3CCC3)s2)Nc2ncccc21 (stereo not drawn)	-6.747
COCCn1cnnc1C1CCCN(c2cnccn2)C1 (stereo not drawn)	-6.919
CCc1cnc(N)nc1NCCc1ccc(OC)cc1OC	-1.61
Cc1nn(C)c2nc(N3CCC(C(O)Cc4ccccc4)CC3)sc12 (stereo not drawn)	10.68

Repeated from the top, 7 entries:

Cc1ccc(Oc2ncccc2C(=O)N(C)CC2OCCO2)c(C)c1 read -1.106%.
Cn1ccnc1Sc1ccc(S(N)(=O)=O)cn1 read 30.59%.
CC(C)[C@@H]1CN(C(=O)C2(c3ccccc3)CCN(C)CC2)C[C@H]1N(C)C read 8.512%.
CCC1CCCCN1Cc1nc2c(cnn2C)c(=O)[nH]1 (stereo not drawn) read -4.629%.
NC(=O)c1cn[nH]c1NC(=O)c1ccc2c(c1)OCO2 read 2.059%.
CC(C)n1nc(CNc2ncccn2)c2c1CN(C)CC2.O=C(O)C(F)(F)F.O=C(O)C(F)(F)F.O=C(O)C(F)(F)F read -1.477%.
CCn1cc(NC(=O)C2CCN(CC(=O)NCC(C)C)CC2)cn1 read -35.57%.

Measurements from “University of Dundee, Small-Polar-MMV Screening Library” (2021), ChEMBL document CHEMBL3988442.